Some of the results follow.

By UniProt entry, the sequences of proteins in these tests, tags left out.
UniProt Q0JBA9, entry or part of it: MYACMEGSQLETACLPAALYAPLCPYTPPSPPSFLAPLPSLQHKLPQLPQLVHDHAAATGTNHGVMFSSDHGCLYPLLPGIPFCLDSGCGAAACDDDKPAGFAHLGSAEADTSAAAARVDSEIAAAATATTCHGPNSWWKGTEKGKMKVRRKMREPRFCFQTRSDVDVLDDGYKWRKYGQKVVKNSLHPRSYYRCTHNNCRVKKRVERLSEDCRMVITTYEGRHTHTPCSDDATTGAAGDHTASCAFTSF

Results on 42 sequences are retold here after publication PMC7819943, “Rice protein-binding microarrays: a tool to detect cis-acting elements near promoter regions in rice”.

The assay deals with OsWRKY34 (Oryza sativa, UniProt Q0JBA9 1-250). As to the kind of experiment: protein-binding microarray (RPBM); PBS, 2% BSA, 51.3 ng/ul salmon testes DNA, 50 uM zinc acetate, 200 nM TF, 25 C, 1 h; high values mean tight binding. As to conditions: protein: recombinant; tags: N-terminal polyhistidine and DsRed monomer fusion (pET32a); label: CyDye5-dUTP incorporated in the synthesized complementary strand; 3' TTTTT single-stranded linker to array surface; dsDNA, one strand shown. In a few lines: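 For the binding signal, per-feature fluorescence intensity was read in arbitrary units on an Axon 4000B scanner. Before scanning, a 2% BSA-blocked custom Agilent array made double-stranded with Cy5-dUTP was washed after 1 h at 25 °C with 200 nM protein and 50 µM zinc acetate. The proteins were Ni–NTA-purified transcription factors with N-terminal polyhistidine and DsRed fusions, expressed in E. coli BL21-CodonPlus.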
In the case of “TCCCTCTGCACATCTTACTACCTCTCTGAGTCGCCAAATTCGGAGTCACCTAGTGCAG”, the binding signal is 8190 fluorescence intensity (a.u.).

“TTCCTTTTGTTTCTTCCATTCCAGGCCCAATTGCCGAAGGCGGAGTCACCTAGTGCAG”: the binding signal is 10500 fluorescence intensity (a.u.).

Turning to “TACACGCTTGTCCTAAACTTATATGCTCGGTTAGATTTTTCGGAGTCACCTAGTGCAG”, the binding signal is 8910 fluorescence intensity (a.u.). The result for “TGATCGATCACACACGTTGCCATCACCAACTTTTCACAGACGGAGTCACCTAGTGCAG” reads 9990 fluorescence intensity (a.u.); that for “TAGTACTGGTTCTTTGTCCATTGTTGACCCATTTTTCCACCGGAGTCACCTAGTGCAG”, 10600 fluorescence intensity (a.u.). The result for “CTACTTACAATTTAAGTCAACATCAGTTCCTACACACGTTCGGAGTCACCTAGTGCAG” reads 8110 fluorescence intensity (a.u.); that for “ACCTGGTCAAACTTAAAACAGTTTGACTTTGACTAAAGCCCGGAGTCACCTAGTGCAG”, 12100 fluorescence intensity (a.u.); that for “CGGAACTCCACCAGCAGCAGTCACGCACGTCTCTCTCTCTCGGAGTCACCTAGTGCAG”, 8630 fluorescence intensity (a.u.). Under “CCCACTATCATCCGTCATCCGTGCAACGCACGGGCATTATCGGAGTCACCTAGTGCAG” stands 9340 fluorescence intensity (a.u.); under “GTTTGCAGTTGCAGACACAGCCCGGCATCTTCCATCTTTTCGGAGTCACCTAGTGCAG”, 8490 fluorescence intensity (a.u.); under “ATCACATGACTACCTAACAAAATATTTATTTTTCTTTTTTCGGAGTCACCTAGTGCAG”, 8760 fluorescence intensity (a.u.).

In the case of “GTAACTATTATGTGCACCGTGTCCTTCTTTAATATAGTTGCGGAGTCACCTAGTGCAG”, the binding signal is 9190 fluorescence intensity (a.u.). As for “AGATATTTTCGCTGACTCGTTGACCCACCACCCATCCCCACGGAGTCACCTAGTGCAG”, the binding signal is 12000 fluorescence intensity (a.u.). With “CCTCGCCCTCGAGCCCTCGATCTCCACATCTCTCTCGCGCCGGAGTCACCTAGTGCAG”, the binding signal is 10900 fluorescence intensity (a.u.). Under “TTTACTGCCATTCTTTTTTTTAGCGCTGCTCTCACTTGATCGGAGTCACCTAGTGCAG” stands 8920 fluorescence intensity (a.u.); under “CATCTTCCAAGGCGGGTAATTTTCAGAGCTATTGCATTGACGGAGTCACCTAGTGCAG”, 10400 fluorescence intensity (a.u.); under “ATGCATCCGATGACCTCATTCTTTCCTCTCTTTTCTGATACGGAGTCACCTAGTGCAG”, 9160 fluorescence intensity (a.u.). Under “GCTAGTTTTGCTTCATTTCCCTGCCTGTGAGTGGTGCAAGCGGAGTCACCTAGTGCAG” stands 8630 fluorescence intensity (a.u.). “GAGGACTGGGCGAAGGGGTGGAAGAAAATGTGGTTGTCGACGGAGTCACCTAGTGCAG”: the binding signal was 8580 fluorescence intensity (a.u.). The result for “CGAACCCTAACGCACCCCGCACACCGCCAACCAACTAAACCGGAGTCACCTAGTGCAG” reads 8110 fluorescence intensity (a.u.).

Turning to “GACCACAATCTATCTACCCTATAATTCACCAACTGATGTTCGGAGTCACCTAGTGCAG”, the binding signal was 9430 fluorescence intensity (a.u.).

Turning to “TTCGTCCCGCGCCACAACCCCAACCTCAGCGAGCTCCGCGCGGAGTCACCTAGTGCAG”, the binding signal was 9150 fluorescence intensity (a.u.). Consider “CTGTTGGTCAATCGCCGAACTTACCGCCGCGCCGGCCATGCGGAGTCACCTAGTGCAG”, for which the binding signal is 9410 fluorescence intensity (a.u.). With “GCAGATCCTTATGTTGGACTTGCCTTTCTTCCGTCCACTTCGGAGTCACCTAGTGCAG”, the binding signal was 8500 fluorescence intensity (a.u.). Under “TCCACTCTGTTGCCTACCGTTGCTCCACACGCCCACCTCTCGGAGTCACCTAGTGCAG” stands 9620 fluorescence intensity (a.u.). On to “CAAATTTTACTATACATCAGTCAATGTTGGTTCGTTCGTTCGGAGTCACCTAGTGCAG”, for which the binding signal was 9660 fluorescence intensity (a.u.).

For “TTTATGATTCATCCTCATTCTGCTGTTAATTTATCACTTACGGAGTCACCTAGTGCAG”, the binding signal is 8930 fluorescence intensity (a.u.). The result for “CCCCATATAAATCACACCCGTCGCATCGCTCCGATTCCCACGGAGTCACCTAGTGCAG” reads 8210 fluorescence intensity (a.u.); that for “AGTCATCAGTTAGTGATTATGCTTGTTTGTTGTGATTAGTCGGAGTCACCTAGTGCAG”, 11300 fluorescence intensity (a.u.); that for “AATCCGCTCCGCTCCGTCTTCCTTCGATCCATAGGATTCGCGGAGTCACCTAGTGCAG”, 9160 fluorescence intensity (a.u.).

In the case of “CATCTCTGCAGCTTGCCGCCGCCTCCTCCTTCGTAGGGACCGGAGTCACCTAGTGCAG”, the binding signal was 9190 fluorescence intensity (a.u.). Under “TCAACCTACTCGCCGTGCCACCATTGCCGCTCCCTACCAACGGAGTCACCTAGTGCAG” stands 12400 fluorescence intensity (a.u.); under “TCATTGTTTGCATGTCATTTAAGTAGTTATAATATTTTTTCGGAGTCACCTAGTGCAG”, 9170 fluorescence intensity (a.u.). Under “ATTTTTTAAAACATATCACATTGTTTTGTTCTTTTCATTTCGGAGTCACCTAGTGCAG” stands 12100 fluorescence intensity (a.u.); under “GCTCCGTCCTGCTGCTACCGCGTACATATACAGTACCGCCCGGAGTCACCTAGTGCAG”, 9930 fluorescence intensity (a.u.); under “CCCTCCGTCGCCAGCTTTCCGTGCCGATACACCTGCTGGCCGGAGTCACCTAGTGCAG”, 10800 fluorescence intensity (a.u.). Under “ACGGTTGGGGATGTCTATGTAATCCGATGATAAGATGAGGCGGAGTCACCTAGTGCAG” stands 8030 fluorescence intensity (a.u.); under “AATCGGCCGCCGTTGACCACTGCTCTTCTCCCTCTTCTCTCGGAGTCACCTAGTGCAG”, 12500 fluorescence intensity (a.u.). In the case of “TTGGATCGGTGTTGGTATATTTAGTTAGTTTAGAGGTCTTCGGAGTCACCTAGTGCAG”, the binding signal is 12600 fluorescence intensity (a.u.). The result for “GCGGCTGGGGCGGGGAGTACAAGGCCTGGGTTGCATCGCACGGAGTCACCTAGTGCAG” reads 9980 fluorescence intensity (a.u.).

With “TGTTCATCCCGGATTTGGCTGGGGTTTGTCTAAAATTCGACGGAGTCACCTAGTGCAG”, the binding signal was 8080 fluorescence intensity (a.u.). Under “ATTAAACCTTGCAATCCTGTATAATCCTATTGTAGATTTGCGGAGTCACCTAGTGCAG” stands 8160 fluorescence intensity (a.u.).
